# Measurements taken from PubChem BioAssay AID624264 (National Center for Advancing Translational Sciences (NCATS), 2012).
# Inconclusive results, whose numbers are uncertain, are shown with a selection of clear calls. Potencies of inconclusive entries are doubtful fits and often do not repeat. The source made the active and inactive calls. Calls follow the shape of the dose curve; as a rule, active = well fitted curve in the direction sought with a large enough effect; inconclusive = small, poorly fitted or top-dose-only effect, or another doubt; inactive = no such curve, though single readings can be large or run the other way.
# Experiment: qHTS for Inhibitors of Glutaminase (GLS): Hit Confirmation using Cytotoxicity
# Settings: HEK-293 viability, CellTiter-Glo luminescence, 24 h; series mostly up to 46.1 µM
# Text: Glutaminase (GLS) catalyzes the hydrolysis of glutamine into glutamate and ammonia. It plays a critical role in glutaminolysis, which is an important energy source for proliferating cells. It was shown that c-Myc, an oncogenic transcription factor known to regulate microRNAs and to stimulate cell proliferation, increases glutamine metabolism by stimulating the expression of GLS via direct suppression of miR23a and miR23b. […] GLS is also thought to play a pathogenic role on HAD using a human HIV-1 infected macrophage system. […] GLS inhibition limits glutamate release and provides neuroprotection against HIV-1 infected macrophages. […] The overall goal of this project is to identify small molecule inhibitors of GLS through quantitative high throughput screening (qHTS) of the MLSMR. A validated potent and selective inhibitor can be used as a tool molecule to further study the pharmacology of its target as well as explore its potential therapeutic application in cancer and inflammatory neurological disorders, such as HIV1-associated dementia (HAD) and multiple sclerosis. This is a hit confirmation assay using a cytotoxic read-out to exclude cytotoxic compounds. Toxic compounds will be labeled as active and excluded in future experiment. NIH Chemical Genomics Center [NCGC] NIH Molecular Libraries Probe Centers Network [MLPCN] MLPCN Grant: DA032470 Assay Submitter (PI): Barbara S. Slusher, Johns Hopkins University
# HEK-293 cells are grown in a flask up to 80% confluence. Cells will be trypsinized, washed, and resuspended in MEM Eagle + 10% FBS + 1% pen-strep media at the concentration of 120 cells/microl. Five microl/well of cell solution will be dispensed into a 1536-well assay plates (Greiner, solid white medium-binding plates) with Auror Discovery BioRAPTR Flying Reagent Dispenser (FRD; Beckton-Dickenson). Cells will be pre-incubated at 37 °C, 5% CO2 for 4hrs. Compound and control solutions (23nl) will then be transferred to the assay plate using the Kalypsys 1536 pin-tool. […] Luminescence signal will be read with PerkinElmer ViewLux plate reader after 30 min room temperature incubation.
row,Structure (SMILES),Potency
1,Cc1ccc(S(=O)(=O)Nc2cc(Cl)c(O)c3ncccc23)cc1,"inconclusive: 3.66 µM [cytotoxic, full curve]"
2,COc1ccc(S(=O)(=O)Nc2cccc3ccc(O)cc23)cc1,"inconclusive: 18.4 µM [cytotoxic, partial curve, poor fit]"
3,COc1ccc(NS(=O)(=O)c2ccc3c(c2)[C@H]2C=CC[C@H]2[C@@H](c2ccc(C(=O)O)cc2)N3)cc1,inactive
